Changes are numbered by the printed parent chain. These are yes or no findings as the source states them, for the method shown. Some binding calls cover weakened binding; strength is not graded here.
B1: AS64395 (VHH)
VHH: QVRLVESGGGSVQAGGSLRLSCAASGSTYSTNFMGWFRQAPGKEREGVATLVTWAERTAYADSVKGRFTISQDRAKNTVYLQMNGLKPEDTAMYYCAAAASTAVRLLDPGDFAYWGQGTQVTVSS
notes: camel sdAb; crude E. coli supernatant
B2: AS64130 (VHH)
VHH: EVQLAESGGGSVQAGGSLRLSCAASGYTYRSNFMGWFRQAPAKEREGVATIDSRGTITYYADSVKGRFTISQDNEKNTVYLQMNSLKPEDTAMYYCAAGGPRTNDDRWYPLRPPGYNYWGQGTQVTVSS
notes: as for B1
B3: AS64634 (VHH)
VHH: QVRLVESGGGSVQAGGSLRLSCAASGYSFRGDFMCMGWFRQTPGKGREGVAVFYPGGGSTNYADSAKGRFTISQDNAKNTMYLQMNTLKPEDTAMYYCAARRWVSGTCYWDSDFHYWGQGTQVTVSS
notes: as for B1
B4: AS64443 (VHH)
VHH: QVHLVESGGGSVQAGGSLRLSCAASGYTDSSVYIGWFRQAPGKEREEVAIIYTGGESTHYRSSVKGRFTVSQDNAKNTLYLQMNSLKPEDTAMYYCAARFPAVTYWGQGTQVTVSS
notes: as for B1
B5: AS64300 (VHH)
VHH: QVHLVESGGGSVQTGGSLRLSCAVSGDIYNLMSMAWFRRAPGKEREGVAYINTIIGNTYYTDSVKGRFTISRDNSKNTLYLQMNNLKPEDTAMYYCAAFNYGGAWYEERSYKYWGQGTQVTVSS
notes: as for B1
B6: AS75378 (VHH)
VHH: QVQLEESGGGSVQAGGSLRLSCVVSGNTRSTTYMGWFRQAPGKEREGVAIVYTGGRDTYYAASVKGRFTISQDNAKTTIYLQMNSLEPEDTAMYYCAARSYEYTYWGRGTQVTVSS
notes: as for B1
B7: AS64097 (VHH)
VHH: QVHLMESGGGSVQAGGSLRLSCEASGYTYSRNCMGWFRQAPGKEREGVAAINTGGGSTYYADSLEGRFTISQDNAKNTMYLQMNSLKPEDTAMYYCAAGPDLGGSWCRPVERAFTYWGQGTQVTVSS
notes: as for B1
B8: AS75751 (VHH)
VHH: QVRLVESGGGSVQAGGSLRLSCVASGYFYNTYYFMGWFRQAPGKEREGVAAIDTDGRTSYADSVKGRFTISKDNAKNTLYLQMNSLKPEDTAMYYCAAGFGYMNVIQALNGMRQNPDYWGQGTQVTVSS
notes: as for B1
B9: AS69500 (VHH)
VHH: QVRLVESGGGSVQAGGSLRLSCAADRYTYSSACMGWFRQAPGKEREGVASIFTGTGGSTYYADSVKGRFTISQDNAKNTVYLQMNSLKPEDTAIYYCAARAFQVGYCYLRTDVYNYWGQGTQVTVSS
notes: as for B1
B10: AS64511 HCAb (Fc fusion, not shown: a dimerising Fc or GST)
chain: QVQLVESGGGSVQAGGSLRLSCAASRATYSTNYISWFRQAPGKEREAVATITTGDGETAYADSVKGRFTISRDNAKNTVYLQMNSLKPEDTAMYYCAANLRIGGDWFDGRDFRAWGQGTQVTVSS
notes: camel sdAb fused with human IgG1 hinge and Fc (chimeric HCAb), crude HEK293 medium
B11: AS64137 (VHH)
VHH: QVRLVESGGGSVQAGGSLRLSCAASGSTYSTNFMGWFRQAPGKEREGVATLVTWVERTAYADSVKGRFTISQDRAKNTVYLQMNSLKPEDTAMYYCAAAAASTDVRLLDPGDFAYWGQGTQVTVSS
notes: as for B1
B12: AS75383 (VHH)
VHH: EVQLAESGGGSVQAGGSLRLSCVASGYTFSSYCLGWFRQAPGKQRQGVATFNNRGVANYHDSVKGRFTASVDNAKNTLLLQMNSLEPDDTAMYYCAADRRYGRQWYQPCEWNTWGQGTQVTVSS
notes: as for B1
B13: AS64160 (VHH)
VHH: EVQLVESGGGSVQAGGSLRLSCAASVYTSSSYCMGWFRQAPGKEREGVAAMCFGGLVTHYADSVKGRFTISQDNAKNTVYLQMNSLKPEDTAMYYCAADFGRDKNYLRPLLPHAYNYWGQGTQVTVSS
notes: as for B1
B14: AS64617 HCAb (Fc fusion, not shown: a dimerising Fc or GST)
chain: QVQLVESGGGSVQAGGSLRLSCAASGYTDRCSMAWYRQAPGKERELVSRISTSGFTNYAASVKGRFTISQDNAKNTVYLQMNSLNPGDTGMYYCAIIVGRTCSLNYWGNGILVTVSS
B15: AS68351 (VHH)
VHH: QVQLEESGGGLVQPGGSLRLSCAASGDTFRAYYMNWVRQAPGKGFEWVSGISASGGRTSYADSVKGRFTISRDNAKNTLYLQLNSLSTEDTGMYYCVKGAVRLSTSSVRDSSWGQGTQVTVSS
notes: as for B1
B16: AS69527 (VHH)
VHH: EVQLAESGGGSVQAGGSLRLSCVASRYTFSSTCMAWFRQAPGKEREEVAAIYTDDGSTWYADSVKGRFTISRDNAKNTVYLQMNSLKPEDTAMYYCAARRWACPRVGSWHEFAYWGQGTQVTVSS
notes: as for B1
B17: AS64597 (VHH)
VHH: QVHLVESGGGSVQAGGSLRLSCAASGYTYRVNFMGWFRQTPGKEREGVATIDSGVGTTYYADSVKGRFTISHNNAKNTIYLQMNSLKPEDTAMYYCAAGGPPTDGDRWYPLRPPGYNYWGQGTQVTVSS
notes: as for B1
B18: AS63932 (VHH)
VHH: QVQLEESGGGSVQAGGSLRLSCVASGYTYGSTFMGWFRQNPGKEREGVAVIYTGGGSTWYASSVKGRFTISQDNAKNTVYLQMNSLKPEDTAMYYCAARYGSGNVNYWGQGTQVTVSS
notes: as for B1
B19: AS64123 (VHH)
VHH: QVQLAESGGGSVQAGGSLRLSCAASGYTYTSNWLGWFRQAPGKEREEVAIIYTGSGSTHYRSSVKGRFTISQDNAKNTVYLQMNSLKPEDTAMYYCAARFSEYNYWGQGTQVTVSS
notes: as for B1
B20: AS63999 (VHH)
VHH: B19 VHH with Q1E, A5V, T30S, L34M, S55G, G56I, F100Y, S101T, E102D
notes: as for B1
B21: AS63930 (VHH)
VHH: EVQLAESGGGSVQAGGSLRLSCAASGYTYSGNYMAWFRQAPGNEREGVAVVYNIDGGGRFTTYADSVKGRFTISRGNDKNTVYLQMNSLKPEDSGMYYCAAEVADPTWGSRDQRRYKYWGQGTQVTVSS
notes: as for B1
B22: AS64052 HCAb (Fc fusion, not shown: a dimerising Fc or GST)
chain: QVHLMESGGGSVQAGGSLRLSCAASGYTYRSNFMGWFRQAPGKEREGIATIHSGVATTYYADSVKGRFTISQDNAKNTVYLQMNSLKPEDTAMYYCAAGGPPANADRWYPLRPPGYNYWGQGTQVTVSS
B23: AS64228 (VHH)
VHH: QVQLKESGGGSIQAGGSLRLSCAASGVSYNRCSMGWYRQAPGKGRELVSRIQPGGNTYYADSVKGRFTVSQDNAKNTVSLQMNSLKPEDTAMYYCNALCWRENVNYWGQGTQVTVSS
notes: as for B1
B24: AS56704 Fab (Fab, V domains shown)
VH: EVQLVESGGGLVQPGGSLRLSCAASGFNISSSYMHWVRQAPGKGLEWVAYIYPSYGYTSYADSVKGRFTISADTSKNTAYLQMNSLRAEDTAVYYCARGGYYYHGMDYWGQGTLVTVSS
VL: DIQMTQSPSSLSASVGDRVTITCRASQSVSSAVAWYQQKPGKAPKLLIYSASSLYSGVPSRFSGSRSGTDFTLTISSLQPEDFATYYCQQASWSPITFGQGTKVEIK
B25: AS56788 Fab (Fab, V domains shown)
VH: EVQLVESGGGLVQPGGSLRLSCAASGFNISSYSMHWVRQAPGKGLEWVAYISSYYGYTYYADSVKGRFTISADTSKNTAYLQMNSLRAEDTAVYYCARYSYYYGMDYWGQGTLVTVSS
VL: DIQMTQSPSSLSASVGDRVTITCRASQSVSSAVAWYQQKPGKAPKLLIYSASSLYSGVPSRFSGSRSGTDFTLTISSLQPEDFATYYCQQHYAPSLITFGQGTKVEIK
B26: AS64062 HCAb (Fc fusion, not shown: a dimerising Fc or GST)
chain: QVRLVESGGGSVQVGGSLRLSCAASRSPYSSSRCMGWFRQAPGKEREGVAALYTGGGSTSYADSVKGRFTISQDNAKNTVYLQMNSLKPEDTAMYYCAAVVPRGGSCRLDERGYYHWGQGTQVTVSS
B27: AS64072 (VHH)
VHH: QVQLVESGGGSVQAGGFLRLSCALSGYSYYINLMAWFRQAPGKEREAVAAHGPVSGTAYYTDSVKGRFTISRDPGKNTMYLQMFSLQPEDTALYYCAAETTMGWAHERGYRYWGQGTQVTVSS
notes: as for B1
B28: AS64114 (VHH)
VHH: QVQLQESGGGSVQAGGSLTLSCEASGNTYSTNYMGWFRQAPGKEREEVAVIYTRGGHTYYVDSVRGRFTISQDNAKNTVYLQMNSLKPEDTAMYYCAAASRHRLRLNNPRDYDYWGQGTQVTVSS
notes: as for B1
B29: AS64380 HCAb (Fc fusion, not shown: a dimerising Fc or GST)
chain: B28 VHH with Q1E, Q5V, T31S, A99S, R105G
notes: as for B10
B30: AS68280 (VHH)
VHH: QVQLVESGGGSVHPGGSLRLSCAASGSTYSSNYLGWFRQAPGKGRDWVAAISTGDGATAYADSVKGRFTISQDNAKNTVYLQMNSLKLEDSAMYYCAAARGRFIDWTKATQYDYWGQGTQVTVSS
notes: as for B1
B31: AS76422 (VHH)
VHH: QVKLVESGGGSVQAGGSLRLSCAASGYTFAGNCLGWFRQAPGKGREGVVTYNNFGVANYADSVKGRFTVSQDNAKNTLLLQMNSLEPEDTAMYYCAADRRDGRRWSQPCEWNTWGQGTQVTVSS
notes: as for B1
B32: AS64142 (VHH)
VHH: QVHLMESGGGLVQTGGSLRLSCTASGFTFDRNAMRWYRQAPGKEREGVSCIDWTGANIAYADSVKGRFTISRDNAKNTLYLQMNSLKPEDTGMYYCAADTTSGYCSGFWSTSRYSWGQGTQVTVSS
notes: as for B1
B33: AS64057 (VHH)
VHH: B32 VHH with H3Q, M5E, D52S, Y104S, S115Y
notes: as for B1

Sequences of proteins named here, by UniProt entry; tags and fusion partners are left off. A change or cut given only in a name is not applied to a line headed by its entry. A line that says so, or that is headed by a name, gives the form on record, which may keep a tag or linker.
rhesus DLL3 (F6TFV4, form named): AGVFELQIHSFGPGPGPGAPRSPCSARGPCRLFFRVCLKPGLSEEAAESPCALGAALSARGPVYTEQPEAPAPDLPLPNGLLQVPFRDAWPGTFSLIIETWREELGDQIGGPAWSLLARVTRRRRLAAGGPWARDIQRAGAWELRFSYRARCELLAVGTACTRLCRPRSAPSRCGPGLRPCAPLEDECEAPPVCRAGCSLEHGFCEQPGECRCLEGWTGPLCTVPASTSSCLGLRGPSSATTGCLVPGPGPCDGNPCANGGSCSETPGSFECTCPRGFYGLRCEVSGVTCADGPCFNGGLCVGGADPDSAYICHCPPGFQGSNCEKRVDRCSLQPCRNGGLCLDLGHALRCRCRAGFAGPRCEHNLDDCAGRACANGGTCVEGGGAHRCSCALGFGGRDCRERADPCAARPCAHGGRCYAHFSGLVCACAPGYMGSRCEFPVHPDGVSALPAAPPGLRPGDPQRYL

Each binder was assayed against rhesus DLL3 (rhesus) (UniProt F6TFV4) (assay: ELISA (protein), FACS (cells)).

binding | Binder
binds | B1
binds | B2
binds | B3
binds | B4
binds | B5
binds | B6
binds | B7
binds | B8
binds | B9
binds | B10
binds | B11
binds | B12
binds | B13
binds | B14
binds | B15
binds | B16
binds | B17

binding | Binder
binds | B18
binds | B19
binds | B20
binds | B21
binds | B22
binds | B23
binds | B24
binds | B25
binds | B26
binds | B27
binds | B28
binds | B29
binds | B30
binds | B31
binds | B32
binds | B33

From patent US20220249563A1 (LEGEND BIOTECH IRELAND, published 2022)
